Assay results published in publication PMC11137047.
Results are given in words; binding and its absence hold for the method and conditions named. In cells and extracts the contact can be indirect. Some entries that bind do so weakly or less than the wild type.

Protein sequences, listed by entry. Tags and fused reporters are not part of them. Residues count along the entry.
UniProt Q60751, residues 31-1373: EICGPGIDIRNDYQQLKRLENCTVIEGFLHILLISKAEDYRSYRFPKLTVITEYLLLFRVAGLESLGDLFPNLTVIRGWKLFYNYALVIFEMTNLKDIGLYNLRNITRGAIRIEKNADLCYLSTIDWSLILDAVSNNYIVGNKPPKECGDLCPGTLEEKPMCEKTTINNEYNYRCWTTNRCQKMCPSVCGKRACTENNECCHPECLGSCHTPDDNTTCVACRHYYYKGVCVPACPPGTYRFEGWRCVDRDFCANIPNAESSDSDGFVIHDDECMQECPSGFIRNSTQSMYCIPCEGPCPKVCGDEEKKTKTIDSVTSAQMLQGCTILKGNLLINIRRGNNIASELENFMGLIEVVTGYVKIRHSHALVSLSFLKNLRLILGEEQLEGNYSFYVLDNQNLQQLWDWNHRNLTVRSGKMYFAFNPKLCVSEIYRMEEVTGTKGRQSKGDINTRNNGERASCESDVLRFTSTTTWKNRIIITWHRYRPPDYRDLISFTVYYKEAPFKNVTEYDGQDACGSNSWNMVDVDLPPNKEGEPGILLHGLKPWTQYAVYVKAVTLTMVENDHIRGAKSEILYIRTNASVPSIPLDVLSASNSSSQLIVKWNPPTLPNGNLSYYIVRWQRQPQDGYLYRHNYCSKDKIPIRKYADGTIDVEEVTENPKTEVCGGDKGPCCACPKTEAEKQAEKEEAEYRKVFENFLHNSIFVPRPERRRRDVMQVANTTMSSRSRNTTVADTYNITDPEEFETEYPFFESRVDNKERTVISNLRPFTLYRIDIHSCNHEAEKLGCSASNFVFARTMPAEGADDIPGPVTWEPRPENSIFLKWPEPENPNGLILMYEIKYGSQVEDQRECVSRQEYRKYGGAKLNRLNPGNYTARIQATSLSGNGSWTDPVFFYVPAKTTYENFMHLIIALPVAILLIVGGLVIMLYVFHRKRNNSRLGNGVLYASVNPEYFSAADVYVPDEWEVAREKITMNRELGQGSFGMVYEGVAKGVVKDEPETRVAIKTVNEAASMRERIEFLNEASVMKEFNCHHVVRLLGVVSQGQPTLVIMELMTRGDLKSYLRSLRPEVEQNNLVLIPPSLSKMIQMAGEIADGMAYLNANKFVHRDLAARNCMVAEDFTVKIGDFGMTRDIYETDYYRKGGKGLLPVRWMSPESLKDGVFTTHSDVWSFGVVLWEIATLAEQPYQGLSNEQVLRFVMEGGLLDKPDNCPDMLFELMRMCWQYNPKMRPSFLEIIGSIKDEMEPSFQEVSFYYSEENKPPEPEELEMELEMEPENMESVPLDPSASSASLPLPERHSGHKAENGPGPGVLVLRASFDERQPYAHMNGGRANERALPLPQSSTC
UniProt P08113, residues 22-802: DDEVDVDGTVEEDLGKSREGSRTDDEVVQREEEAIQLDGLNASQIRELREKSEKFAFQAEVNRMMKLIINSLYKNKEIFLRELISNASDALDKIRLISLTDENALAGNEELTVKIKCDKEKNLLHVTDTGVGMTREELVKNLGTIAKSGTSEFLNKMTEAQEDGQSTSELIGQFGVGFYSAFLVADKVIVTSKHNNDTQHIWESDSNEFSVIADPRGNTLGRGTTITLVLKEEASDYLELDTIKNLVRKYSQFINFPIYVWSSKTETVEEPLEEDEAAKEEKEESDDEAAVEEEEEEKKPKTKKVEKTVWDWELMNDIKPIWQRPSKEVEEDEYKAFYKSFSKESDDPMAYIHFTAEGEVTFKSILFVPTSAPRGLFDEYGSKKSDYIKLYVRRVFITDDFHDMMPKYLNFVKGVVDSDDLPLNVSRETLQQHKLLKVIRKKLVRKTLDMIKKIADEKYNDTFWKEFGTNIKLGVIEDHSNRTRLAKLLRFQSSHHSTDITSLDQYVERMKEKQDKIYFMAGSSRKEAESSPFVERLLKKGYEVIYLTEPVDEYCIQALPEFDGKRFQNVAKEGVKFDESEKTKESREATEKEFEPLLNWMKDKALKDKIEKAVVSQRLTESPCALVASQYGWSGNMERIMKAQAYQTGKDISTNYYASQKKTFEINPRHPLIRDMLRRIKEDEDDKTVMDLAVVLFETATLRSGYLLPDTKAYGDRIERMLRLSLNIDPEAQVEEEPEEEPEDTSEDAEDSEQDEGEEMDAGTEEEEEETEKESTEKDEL

What was measured:
[1] = target: insulin-like growth factor-1 receptor (IGF-1R) (mouse (endogenous in βTC3)) (UniProt Q60751); assay: co-IP; lysates of WT or GRP94 knock-down βTC3 cells (1% NP-40, 150 mM NaCl, 20 mM Tris-HCl pH 7.5); 0.5-1 mg lysate with rabbit anti-GRP94 or rabbit anti-IGF-1R antibody overnight at 4 °C, Protein A agarose, five washes; immunoblot for IGF-1R and GRP94
[2] = target: glucose-regulated protein 94 (GRP94) (mouse (endogenous in βTC3)) (UniProt P08113); assay: as above

glucose-regulated protein 94 (GRP94) (from UniProt P08113 22-802)
binding [1]: binds

insulin-like growth factor-1 receptor (IGF-1R) (from UniProt Q60751 31-1373)
binding [2]: binds
